Where “and” joins values, the source holds several entries; their conditions need not be identical. Identical values can stand only once. Out of some 320,000 compounds screened, about 22,000 (6.9%) were called active. Inconclusive means that the source gave no clear call. Such entries were picked first, then a sample of the others. The call rests on the fitted dose curve; in most records, active means well fitted inhibition curve with a large enough effect; inconclusive means small, poorly fitted or top-dose-only effect, or another doubt; inactive means no such curve, though single readings can be large or run the other way. Where the call is inconclusive, the potency comes from a doubtful curve fit.
Assay: Primary qHTS for delayed death inhibitors of the malarial parasite plastid, 96 hour incubation
Settings: P. falciparum luciferase reporter growth; series mostly up to 28.7 µM
Summary of the method: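 Erythrocytes infected with luciferase-expressing P. falciparum were dispensed at 2% hematocrit and 0.05% parasitemia (final), then incubated with compounds 96 hours at 37 C in 5% CO2. Luminescence after detection reagent addition reported growth.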
Potency means the concentration at half of the fitted maximal effect.

Row | Structure (SMILES) | Potency
1 | CCOc1ccc(N(CC)C(=O)CCS(=O)(=O)c2cccc3nonc23)cc1 | inactive
2 | CCN(CC)C(=O)CSc1nc(Cc2ccccc2)nc2ccccc12 | inconclusive: 18.5 µM [inhibitor, single point]
3 | CC(C)c1cc(N=NC(N)=O)cc(C(C)C)c1O | inconclusive: 11.7 µM [inhibitor, single point]
4 | CSc1ccc(/C=C2/C(=N)N3N=C(CC(=O)N4CCCC4)SC3=NC2=O)cc1 | inconclusive: 18.5 µM [inhibitor, single point]
5 | CCNC(=O)CSc1nc(-c2ccc(F)cc2)cs1 | inconclusive: 4.15 µM [inhibitor, partial curve, poor fit]
6 | CN(C(=O)CSc1nnnn1C)C1(C#N)CCCCC1 | inactive
7 | CCCCNC(=O)COC(=O)c1ccccc1F | inactive
8 | Clc1ccc(CSc2nccn2Cc2ccccc2)cc1 | inconclusive: 1.04 µM [inhibitor, partial curve, poor fit]
9 | CC(C)(C)c1cnnn1-c1ccc(NC(=O)c2ccc3c(c2)OCO3)cc1 | inactive
10 | COc1cc(OC)c2c(=O)c(OC)c(-c3ccc(OC)c(OC)c3)oc2c1 | inconclusive: 4.15 µM [inhibitor, single point]
11 | CCn1nc(C)c(CN2CCCC(CO)(Cc3ccccc3)C2)c1C (centres undefined) | inconclusive: 10.4 µM [inhibitor, single point]
12 | COc1ccccc1N1CCN(Cc2cc(Br)c(O)c3ncccc23)CC1 | inconclusive: 3.29 µM [inhibitor, full curve, poor fit]
13 | CCN(CC)CCCN(C(=O)c1ccco1)c1nc(-c2ccc(Cl)cc2)cs1 | inconclusive: 7.38 µM [inhibitor, single point]
14 | O=C(CNC(=O)[C@@H]1Cc2ccccc2CN1)NC1CCCC1 | inconclusive: 18.5 µM [inhibitor, single point]
15 | CCC(C)Sc1nc2ccccc2n1CC(=O)O (centres undefined) | inactive
16 | CCn1ncc(CN2CCC(Oc3cc(C(=O)NC4CC4)ccc3OC)CC2)c1C | active: 1.04 µM
17 | COc1ccc(C(=O)COC(=O)c2nn(C)cc2Cl)cc1 | inactive
18 | NC(=O)C1CCN(c2nc(-c3ccc(C(F)(F)F)cc3)cs2)CC1 | inactive
19 | Cc1cc(Nc2ccc3c(c2)OCCO3)c2ccccc2n1 | inconclusive: 11.7 µM [inhibitor, partial curve, poor fit]
20 | CCOC(=O)C1CCN(c2cc3c(cc2NC(=O)c2cc(OC)ccc2Br)n(C)c(=O)n3C)CC1 | inconclusive: 3.7 µM [inhibitor, full curve]
21 | CN(C)c1nc(NCc2ccccc2)nc(N/N=C/c2ccc(Cl)cc2Cl)n1 | active: 9.28 µM
22 | CCCNC(=O)CCc1cc(C(C)(C)C)c(O)c(C(C)(C)C)c1 | inconclusive: 11.7 µM [inhibitor, single point]
23 | O=C(Nc1ccccc1)Nc1cccn(Cc2c(F)cccc2Cl)c1=O | inactive
24 | CN(CCO)C(=O)CCC(=O)Nc1ccc(S(N)(=O)=O)cc1 | inconclusive: 20.8 µM [inhibitor, partial curve, poor fit]
25 | O=C(N/C=N/OCc1ccc(Cl)cc1Cl)NOCc1c(Cl)cccc1Cl | inconclusive: 18.5 µM [inhibitor, single point]

Row | Structure (SMILES) | Potency
26 | O=C(c1cc(-c2ccc(Cl)cc2)on1)N1CCCCCC1 | inactive
27 | O=C(Cc1cn(Cc2cccc(Cl)c2)c2ccccc12)N1CCCC1 | inconclusive: 13.1 µM [inhibitor, single point]
28 | O=Cc1cccn1-c1cccc([N+](=O)[O-])c1 | active: 2.62 µM
29 | CNC(=S)N1CCn2cccc2C1c1cc(OC)c(OC)c(OC)c1 (centres undefined) | inconclusive: 0.0033 µM [inhibitor, full curve, poor fit]
30 | Cc1ccc(S(=O)(=O)CCC(=O)OCC(=O)NC2CCS(=O)(=O)C2)cc1 (centres undefined) | inactive
31 | COc1ccccc1Cn1c(=O)oc2ccc(C)cc21 | inconclusive: 10.4 µM [inhibitor, partial curve, poor fit]
32 | COc1ccc(CNC(=O)[C@@H](NC(=O)C2CCN(C(=O)[C@@H]3CCCN3C(=O)OC(C)(C)C)CC2)C(C)C)cc1 | inconclusive: 18.5 µM [inhibitor, single point]
33 | C[C@H]1[C@H](c2ccccc2)C[C@@H](C(=O)O)C1(C)C | inactive
34 | CCN(CC)C(=O)c1ccc(NC(=O)COc2ccc(-c3nn(C)c(=O)c4ccccc34)cc2)cc1 | inconclusive: 2.08 µM [inhibitor, partial curve]
35 | CCC(C(=O)Nc1ccc(C(C)C)cc1)c1ccccc1 (centres undefined) | inconclusive: 3.29 µM [inhibitor, partial curve, poor fit]
36 | NC(=O)c1ccc(N2CCNC(=O)C2)c([N+](=O)[O-])c1 | inactive
37 | CCCCN(C)CCNC(=O)Cn1c(=O)sc2ccccc21 | active: 8.28 µM
38 | Cc1cc2nc(CCN(Cc3cccnc3)C(=S)Nc3ccccc3)[nH]c2cc1C | active: 7.38 µM
39 | CCC(c1nnnn1C1CCCC1)N(Cc1cccs1)Cc1cc2cc(C)ccc2[nH]c1=O (centres undefined) | inactive
40 | O=C(CCSc1ccccn1)Nc1ccc(Br)cc1 | inactive
41 | Cc1c(NC(=O)C2C3C=CC(C3)C2C(=O)O)c(=O)n(-c2ccccc2)n1C (centres undefined) | inactive
42 | CSc1nc(=S)n(-c2cc(C)ccc2C)c(C)c1C(C)=O | inactive
43 | CSc1ccc(CNC(=O)c2ccc(NC(=O)C3=CSCCO3)cc2)cc1 | active: 7.38 µM
44 | NC(=O)OCCSc1nnc(-c2cccc(C(N)=S)c2)o1 | inconclusive: 11.7 µM [inhibitor, single point]
45 | CN(C)S(=O)(=O)c1cc(C(=O)OCCn2cnc3c2c(=O)n(C)c(=O)n3C)ccc1Cl | inactive
46 | O=C(O)CCCn1nc(-c2ccccc2)c2ccccc21 | inconclusive: 18.5 µM [inhibitor, single point]
47 | CCN1C(=S)N[C@@H](c2ccccc2)C(C(=O)OC)=C1C | inconclusive: 233 nM [inhibitor, partial curve, poor fit] and inconclusive: 11.7 µM [inhibitor, single point]
48 | O=C(NCCc1ccccn1)c1cc2ccccc2o1 | inactive
49 | COCCNC(=O)c1sc2ncn(CC(=O)Nc3ccc(C)c(Cl)c3)c(=O)c2c1C | inconclusive: 9.28 µM [inhibitor, partial curve, poor fit]
50 | Cc1nc(-c2cccc(NC(=O)c3cc4cc(Br)ccc4oc3=O)c2)cs1 | inconclusive: 1.31 µM [inhibitor, full curve]

Row | Structure (SMILES) | Potency
51 | Cc1ccc(F)cc1NC(=O)c1cccc(N(C)C)c1 | active: 11.7 µM
52 | COc1cccc(/C(O)=C2/C(=O)C(=O)N(c3cc(C)on3)C2c2cccs2)c1 (centres undefined) | inactive
53 | O=C(CSc1ccc(-c2cccnc2)nn1)Nc1ccccc1F | inactive
54 | O=C(Nc1ccc(O)c2c(=O)cc(-c3cccc(Cl)c3)oc12)c1ccccc1Cl | inconclusive: 18.5 µM [inhibitor, single point]
55 | COc1ccc(CN2CCNC(=O)C2CC(=O)N(C)Cc2nonc2C)c(F)c1 (centres undefined) | inconclusive: 11.7 µM [inhibitor, partial curve, poor fit]
56 | CC(C)(C)n1nnnc1C(c1cccnc1)N(Cc1ccccc1)Cc1cccs1 (centres undefined) | active: 0.165 µM
57 | CN1CCN(C2=C(Cl)C(=O)N(c3cccc(Cl)c3)C2=O)CC1 | inconclusive: 18.5 µM [inhibitor, single point]
58 | CC(C)CN(Cc1c(O)ccc2c(=O)c(-c3ccccc3)coc12)CC(C)C | inconclusive: 4.15 µM [inhibitor, single point]
59 | Cc1ccccc1OCC(=O)NCCCNC(=O)c1ccncc1 | inactive
60 | N#Cc1ccccc1OCC(=O)Nc1cccc(S(=O)(=O)N2CCCCCC2)c1 | inconclusive: 18.5 µM [inhibitor, single point]
61 | Cc1cccc(C(=O)NC(=O)Nc2c(C)cc(C)nc2C)c1 | inconclusive: 8.28 µM [inhibitor, partial curve]
62 | COc1cc2[nH]c(=O)n(-c3cccc(Cl)c3)c(=O)c2cc1OC | inactive
63 | CCOc1ccc2nc(NC(=S)N(C)C)sc2c1 | inconclusive: 8.28 µM [inhibitor, partial curve, poor fit]
64 | O=C(NCc1ccc2c(c1)OCO2)c1n[nH]c(=O)c2ccccc12 | inactive
65 | COc1ccc(C(=O)N/N=C/C(=O)c2ccccc2)cc1 | inactive
66 | N#CC1(c2ccccc2)CCN(S(=O)(=O)c2ccc(OC(F)(F)F)cc2)CC1 | inconclusive: 3.7 µM [inhibitor, single point]
67 | COC(=O)c1c(-c2cccs2)csc1NC(=O)c1cccnc1 | inactive
68 | Cc1ncc([N+](=O)[O-])n1CCOC(=O)NC(NCc1ccccc1Cl)C(Cl)(Cl)Cl (centres undefined) | inconclusive: 1.47 µM [inhibitor, full curve]
69 | COc1c(O)cc2c(c1O)[C@@H]1O[C@@H](CO)[C@@H](O)[C@@H](O)[C@@H]1OC2=O | inactive
70 | O=C(Nc1ccc(F)cc1)c1ccc(CN2CCc3ccccc3C2)cc1 | inconclusive: 18.5 µM [inhibitor, single point]
71 | CCC(C)NC(=O)Cn1nc(C(F)(F)F)c2c1CCC2 (centres undefined) | inconclusive: 10.4 µM [inhibitor, single point]
72 | C=CCn1c(SCC(=O)Nc2ccccc2OC)nnc1-c1ccco1 | inactive
73 | O=C(NCCN1CCOCC1)c1ccc(Cl)c(S(=O)(=O)N2CCCCCC2)c1 | inconclusive: 0.0029 µM [inhibitor, full curve, poor fit]
74 | COc1ccc(C2/C=C\CN(C(=O)CC(C)(C)C)CC(=O)N2Cc2ccc(F)cc2)cc1 (centres undefined) | inconclusive: 18.5 µM [inhibitor, single point]
